Measurements as given in PMC5996148.
The list shows a part of the results.

Assays:
Assay in all cases: protein microarray (ProtoArray v5.0), streptavidin-Alexa Fluor 647
Settings in all cases: 3'-biotin; 20 mM Tris (pH 7.5), 5 mM MgCl2, 100 mM KCl, 0.1% Tween-20, A/T-rich and random oligonucleotide blockers; temperature not stated; high values mean tight binding
PSG3 (human) = tested on: PSG3 (human)
PSIP1 (human) = tested on: PSIP1 (human)
PSMA1 (human) = tested on: PSMA1 (human)
PSMA4 (human) = tested on: PSMA4 (human)
PSMA5 (human) = tested on: PSMA5 (human)
PSMB4 (human) = tested on: PSMB4 (human)
PSMB8 (human) = tested on: PSMB8 (human)
PSMC4 (human) = tested on: PSMC4 (human)
PSMD10 (human) = tested on: PSMD10 (human)
PSMD11 (human) = tested on: PSMD11 (human)

Question: “GGGAGGCTGAGGCAGG [G4-1 biotinylated (PQS2)]” was tested. Which binding signal (PSG3 (human)) did it give?
Answer: -0.31 z-score

Question: And the binding signal (PSIP1 (human))?
Answer: -0.328 z-score

Question: And the binding signal (PSMA1 (human))?
Answer: -0.319 z-score

Question: What about the binding signal (PSMA4 (human)) of the same sequence?
Answer: -0.338 z-score

Question: What about the binding signal (PSMA5 (human)) of the same sequence?
Answer: -0.335 z-score

Question: What about the binding signal (PSMB4 (human)) of the same sequence?
Answer: -0.256 z-score

Question: And the binding signal (PSMB8 (human))?
Answer: -0.321 z-score

Question: What about the binding signal (PSMC4 (human)) of the same sequence?
Answer: -0.294 z-score

Question: And the binding signal (PSMD10 (human))?
Answer: -0.34 z-score

Question: What about the binding signal (PSMD11 (human)) of the same sequence?
Answer: -0.354 z-score
